{"source": "patent US20230157288A1", "about": "“PEST CONTROL METHOD, PEST CONTROL AGENT COMPOSITION, AND PEST CONTROL AGENT SET” (priority 2020, published 2023)", "system": "Phyllotreta striolata", "assay": "Test for confirming effect on Phyllotreta striolata (bok choy seedling sprinkling, insecticidal rate)", "format": "in vivo", "conditions": "single application, 0.5 ppm; Phyllotreta striolata imagoes, 6 days after release", "protocol": "Test for Confirming Effect on Phyllotreta striolata\nA flowable agent containing the compound A was diluted with water containing RABIDEN 3S diluted 5000 times to prepare chemical solutions A containing the compound A at twice concentrations described in Table 5.\nA preparation containing the compound B or a flowable agent containing the compound B was diluted with water containing RABIDEN 3S diluted 5000 times to prepare chemical solutions B containing the compound B at twice concentrations described in Table 5.\nA mixed solution obtained by mixing the chemical solution A and the chemical solution B in an equivalent amount was sprinkled on bok choy seedlings (at the seventh true leaf stage) planted in 9-cm pots. After air dry, these bok choy seedlings were placed in plastic cups, and ten Phyllotreta striolata imagoes were released (AB mixture application plot). […]\nThen, the bok choy seedlings sprinkled with the chemical solutions were placed in a thermostatic chamber at a temperature of 25° C. and a humidity of 60%, viability determination was performed 6 days after the insect release, and the insecticidal rate was calculated by the following equation. […]\nTo show the degree of a synergistic effect, the “effectiveness expectation” was calculated based on the Colby method. When the effectiveness is higher than the “effectiveness expectation”, it is determined that there is a synergistic effect. […]", "note": "Where “and” joins values, the source holds several entries; their conditions need not be identical. Equal values may be shown once. At least one read-out could not be matched to a standard name with certainty.", "data": [{"compound": "CCS(=O)(=O)c1cc(C2CC2)cnc1-c1ncc(C=C(Cl)C(F)(F)F)n1C", "note": "[Compound (II)]", "values": [{"measurement": "Effectiveness Measurement (insecticidal rate)", "value": "18% and 10%"}]}]}
